# According to the supplement of paper PMC10338343:
# ± gives the standard deviation. The list shows a part of the results. Many entries were measured with a wide error.
# Test system: EfPiwi piRISC loaded with L1MC piRNA (26 nt)
# Experiment: pre-steady-state target cleavage rate (min^-1); guide: L1MC piRNA 5'p-UAACUAAAUACUAUGCAAGCUGUAGG; MIWI and MILI are mouse PIWI proteins and EfPiwi is from a freshwater sponge; tags in brackets are library labels; higher = faster piRNA-guided slicing of the target
# Conditions: auxiliary factor: none (no Gtsf1)
# Procedure, shortened: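 Three pooled Cleave-'n-Seq trials supplied the data, with k3 capped at 0.0001 min^-1. In each, […] transcribed, DNA-blocked target RNA library and 1 nM active affinity-purified piRISC with one synthetic guide reacted in HEPES–potassium acetate buffer at 33 °C for 0–8 or 0–960 min, with or without 500 nM GTSF1 partner protein. Uncleaved targets were sequenced and normalised to depth and to weakly complementary targets. A burst-and-steady-state fit provided the pre-steady-state cleavage rate.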
row,Sequence,pre-steady-state target cleavage rate
1,UCCUGGAUGUCGAACGUAUCUAUUUAGUUA [g2:g10:cont:t1A],0.000125 ± 0.034
2,UCCUCCUACACCUUGCAUAGAAUUUAGUUA,0.000387 ± 0.013
3,UCCUGCUACAGCUUGCAUAUAUUUAGUUA,0.000892 ± 0.0081
4,UCCUCCUACAGCUUGCAUACUAUUAAGUUA,0.00055 ± 0.0082
5,UCCUGGAUCAGCUACGAUAGUAUUUAGUUA,0.000429 ± 0.016
